The target in one assay is T1, PHGDH-Flag (UniProt O43175).
T1 sequence: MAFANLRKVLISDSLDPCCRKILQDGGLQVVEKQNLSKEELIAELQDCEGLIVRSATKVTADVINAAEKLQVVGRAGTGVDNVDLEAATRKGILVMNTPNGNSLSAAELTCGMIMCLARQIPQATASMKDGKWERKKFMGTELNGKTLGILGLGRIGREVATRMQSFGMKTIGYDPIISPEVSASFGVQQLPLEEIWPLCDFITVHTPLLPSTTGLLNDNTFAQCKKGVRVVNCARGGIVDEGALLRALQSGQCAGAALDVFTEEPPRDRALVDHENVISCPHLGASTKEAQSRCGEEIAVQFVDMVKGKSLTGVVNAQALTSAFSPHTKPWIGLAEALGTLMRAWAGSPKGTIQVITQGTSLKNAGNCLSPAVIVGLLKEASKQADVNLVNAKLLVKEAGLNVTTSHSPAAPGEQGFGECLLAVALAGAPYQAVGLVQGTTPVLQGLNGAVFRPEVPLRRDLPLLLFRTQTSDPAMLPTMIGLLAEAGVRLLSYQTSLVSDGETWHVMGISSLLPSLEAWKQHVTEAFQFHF
In words: co-IP; exogenous immunoprecipitation of co-transfected tagged constructs in HEK293 (and MHCC-97H) cells; NP-40 lysis buffer, anti-HA / anti-Flag / anti-Myc antibody overnight at 4 °C; Western blot. (In general: In western blotting, separated proteins are transferred to a membrane and probed.)

Sequences of proteins named here, by UniProt entry; tags and fusion partners are left off.
UniProt O00425: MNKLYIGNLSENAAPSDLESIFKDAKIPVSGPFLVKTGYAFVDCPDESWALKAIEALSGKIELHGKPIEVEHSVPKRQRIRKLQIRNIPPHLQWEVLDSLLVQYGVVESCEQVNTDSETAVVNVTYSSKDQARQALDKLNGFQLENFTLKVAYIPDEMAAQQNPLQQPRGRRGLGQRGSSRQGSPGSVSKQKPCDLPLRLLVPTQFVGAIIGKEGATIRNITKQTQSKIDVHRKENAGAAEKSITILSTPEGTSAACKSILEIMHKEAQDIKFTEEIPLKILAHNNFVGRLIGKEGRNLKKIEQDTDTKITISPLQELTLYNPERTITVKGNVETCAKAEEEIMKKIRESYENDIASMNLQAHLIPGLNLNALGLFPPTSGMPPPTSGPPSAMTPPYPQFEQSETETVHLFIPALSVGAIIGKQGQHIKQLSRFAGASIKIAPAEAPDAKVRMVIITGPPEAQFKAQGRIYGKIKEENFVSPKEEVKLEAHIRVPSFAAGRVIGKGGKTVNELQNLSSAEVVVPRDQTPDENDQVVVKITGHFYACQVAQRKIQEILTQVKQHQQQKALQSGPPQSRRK

For assay [1], the target named is T2, phosphoglycerate dehydrogenase (PHGDH), endogenous (human (endogenous in PLC/PRF/5 and Huh7)) (UniProt O43175).
T2 sequence: T1 sequence
Kind of assay: co-IP; endogenous immunoprecipitation in PLC/PRF/5 and Huh7 cells; NP-40 lysis buffer, lysate with the specified antibody overnight at 4 °C, then Protein A/G magnetic beads 4 h; washed with PBST; Western blot.

No constants are given. Whether binding was seen depends on the method and setting. In cells and extracts the contact can be indirect. Some entries that bind do so weakly or less than the wild type. For some assays here: Where a sequence is shown, tags or fusion partners need not be part of it.

On to IGF2BP3-Myc (from UniProt O00425 1-579), for which the binding result with PHGDH-Flag is “binds”.
In the case of “insulin-like growth factor 2 mRNA-binding protein 3 (IGF2BP3), endogenous (from UniProt O00425 1-579)”, in assay [1], the binding entry was “binds”.

For the origin of these results see paper PMC12274589.
